These are yes or no findings as the source states them, for the method shown. For some of these results: Binding seen in cells or lysates may run through a third protein. Some entries that bind do so weakly or less than the wild type. For some of these results: Sequences can lack the tags named with a protein.
T1: FLAG-tagged XBP1s (UniProt O35426)
T1 sequence: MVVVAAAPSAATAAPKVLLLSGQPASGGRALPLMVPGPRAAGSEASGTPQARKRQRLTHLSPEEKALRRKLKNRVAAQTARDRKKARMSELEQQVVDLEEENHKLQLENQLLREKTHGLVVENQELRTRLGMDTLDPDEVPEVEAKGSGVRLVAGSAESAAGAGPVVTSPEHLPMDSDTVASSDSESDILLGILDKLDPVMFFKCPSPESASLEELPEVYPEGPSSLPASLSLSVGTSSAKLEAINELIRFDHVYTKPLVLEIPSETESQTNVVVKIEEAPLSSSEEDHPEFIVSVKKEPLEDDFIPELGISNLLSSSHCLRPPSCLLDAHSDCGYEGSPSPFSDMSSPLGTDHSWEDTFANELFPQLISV

Chains of the proteins cited; added tags and fusions are not shown. Residues count along the entry.
UniProt P02769, residues 25-607: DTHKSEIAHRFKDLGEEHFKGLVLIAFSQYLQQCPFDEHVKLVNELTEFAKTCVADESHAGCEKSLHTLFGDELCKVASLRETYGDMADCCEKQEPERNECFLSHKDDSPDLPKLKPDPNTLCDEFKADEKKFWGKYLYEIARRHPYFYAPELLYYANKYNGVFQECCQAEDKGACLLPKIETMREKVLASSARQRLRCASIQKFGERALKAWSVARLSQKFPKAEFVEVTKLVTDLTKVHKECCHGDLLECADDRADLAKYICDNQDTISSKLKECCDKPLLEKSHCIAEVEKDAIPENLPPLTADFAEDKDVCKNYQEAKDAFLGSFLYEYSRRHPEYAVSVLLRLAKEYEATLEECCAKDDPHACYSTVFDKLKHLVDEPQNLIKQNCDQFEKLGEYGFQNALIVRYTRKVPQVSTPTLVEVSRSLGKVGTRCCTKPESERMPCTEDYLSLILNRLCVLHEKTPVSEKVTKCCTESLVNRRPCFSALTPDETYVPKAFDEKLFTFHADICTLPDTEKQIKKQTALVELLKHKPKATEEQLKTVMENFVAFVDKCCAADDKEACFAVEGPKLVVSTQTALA
UniProt B2RWS6: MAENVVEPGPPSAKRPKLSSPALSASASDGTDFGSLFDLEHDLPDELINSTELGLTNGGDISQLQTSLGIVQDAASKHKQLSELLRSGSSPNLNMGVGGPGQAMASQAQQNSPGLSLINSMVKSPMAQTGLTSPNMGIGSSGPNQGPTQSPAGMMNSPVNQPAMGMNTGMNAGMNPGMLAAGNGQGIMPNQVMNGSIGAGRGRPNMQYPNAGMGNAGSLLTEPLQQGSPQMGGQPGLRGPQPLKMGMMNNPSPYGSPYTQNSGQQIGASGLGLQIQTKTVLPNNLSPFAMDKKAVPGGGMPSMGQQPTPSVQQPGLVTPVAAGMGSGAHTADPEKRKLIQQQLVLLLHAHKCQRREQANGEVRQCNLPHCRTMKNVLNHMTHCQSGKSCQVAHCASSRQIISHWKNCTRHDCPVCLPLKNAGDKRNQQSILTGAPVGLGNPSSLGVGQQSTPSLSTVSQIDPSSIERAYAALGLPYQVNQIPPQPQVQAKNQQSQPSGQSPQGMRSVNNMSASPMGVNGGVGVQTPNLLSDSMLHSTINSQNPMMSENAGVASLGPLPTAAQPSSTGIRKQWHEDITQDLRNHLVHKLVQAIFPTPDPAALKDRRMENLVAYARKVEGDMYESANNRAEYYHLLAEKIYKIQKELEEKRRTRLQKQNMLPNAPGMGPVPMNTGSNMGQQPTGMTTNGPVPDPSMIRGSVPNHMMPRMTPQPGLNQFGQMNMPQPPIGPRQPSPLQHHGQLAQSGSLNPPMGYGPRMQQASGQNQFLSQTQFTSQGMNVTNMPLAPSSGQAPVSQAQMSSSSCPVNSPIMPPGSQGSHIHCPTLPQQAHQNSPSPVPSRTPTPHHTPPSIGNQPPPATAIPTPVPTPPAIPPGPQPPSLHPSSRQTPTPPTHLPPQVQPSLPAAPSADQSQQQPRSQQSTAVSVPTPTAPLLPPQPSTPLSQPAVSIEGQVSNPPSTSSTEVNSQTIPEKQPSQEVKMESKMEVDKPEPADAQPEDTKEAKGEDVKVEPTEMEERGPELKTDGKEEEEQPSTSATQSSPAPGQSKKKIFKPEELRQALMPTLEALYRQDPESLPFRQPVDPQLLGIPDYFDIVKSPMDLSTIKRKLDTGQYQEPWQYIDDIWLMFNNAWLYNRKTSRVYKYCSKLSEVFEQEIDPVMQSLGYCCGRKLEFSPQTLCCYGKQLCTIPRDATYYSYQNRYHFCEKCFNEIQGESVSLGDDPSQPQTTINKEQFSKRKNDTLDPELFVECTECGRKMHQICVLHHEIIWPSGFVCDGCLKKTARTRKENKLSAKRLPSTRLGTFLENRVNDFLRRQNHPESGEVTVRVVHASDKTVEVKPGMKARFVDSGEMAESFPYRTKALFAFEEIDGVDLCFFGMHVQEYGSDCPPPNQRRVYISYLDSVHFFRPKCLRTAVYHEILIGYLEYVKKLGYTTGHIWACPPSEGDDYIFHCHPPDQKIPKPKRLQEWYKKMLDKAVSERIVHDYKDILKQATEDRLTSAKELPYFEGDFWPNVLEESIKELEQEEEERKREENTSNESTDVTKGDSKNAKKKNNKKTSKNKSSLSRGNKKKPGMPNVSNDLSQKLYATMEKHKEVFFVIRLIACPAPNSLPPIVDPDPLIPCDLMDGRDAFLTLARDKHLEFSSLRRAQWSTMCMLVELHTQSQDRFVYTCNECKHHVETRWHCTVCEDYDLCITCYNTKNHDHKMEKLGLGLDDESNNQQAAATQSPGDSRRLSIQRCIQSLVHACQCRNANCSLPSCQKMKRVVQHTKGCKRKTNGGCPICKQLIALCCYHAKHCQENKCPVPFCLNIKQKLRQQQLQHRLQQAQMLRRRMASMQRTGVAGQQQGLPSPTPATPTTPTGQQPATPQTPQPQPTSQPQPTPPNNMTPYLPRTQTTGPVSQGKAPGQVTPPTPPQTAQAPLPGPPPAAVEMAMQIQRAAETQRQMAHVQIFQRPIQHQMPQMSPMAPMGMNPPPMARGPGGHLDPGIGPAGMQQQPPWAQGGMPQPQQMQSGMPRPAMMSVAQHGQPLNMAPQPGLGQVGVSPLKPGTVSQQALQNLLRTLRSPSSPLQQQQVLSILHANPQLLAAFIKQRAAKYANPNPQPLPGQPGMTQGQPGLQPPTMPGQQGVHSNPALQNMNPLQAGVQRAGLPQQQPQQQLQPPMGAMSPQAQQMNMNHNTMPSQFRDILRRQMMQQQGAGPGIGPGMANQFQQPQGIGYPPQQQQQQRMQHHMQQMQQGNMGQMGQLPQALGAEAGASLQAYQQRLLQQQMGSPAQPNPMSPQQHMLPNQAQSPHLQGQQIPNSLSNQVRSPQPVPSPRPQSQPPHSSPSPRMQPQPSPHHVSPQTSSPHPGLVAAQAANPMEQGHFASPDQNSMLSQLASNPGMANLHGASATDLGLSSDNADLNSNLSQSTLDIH
UniProt Q09472: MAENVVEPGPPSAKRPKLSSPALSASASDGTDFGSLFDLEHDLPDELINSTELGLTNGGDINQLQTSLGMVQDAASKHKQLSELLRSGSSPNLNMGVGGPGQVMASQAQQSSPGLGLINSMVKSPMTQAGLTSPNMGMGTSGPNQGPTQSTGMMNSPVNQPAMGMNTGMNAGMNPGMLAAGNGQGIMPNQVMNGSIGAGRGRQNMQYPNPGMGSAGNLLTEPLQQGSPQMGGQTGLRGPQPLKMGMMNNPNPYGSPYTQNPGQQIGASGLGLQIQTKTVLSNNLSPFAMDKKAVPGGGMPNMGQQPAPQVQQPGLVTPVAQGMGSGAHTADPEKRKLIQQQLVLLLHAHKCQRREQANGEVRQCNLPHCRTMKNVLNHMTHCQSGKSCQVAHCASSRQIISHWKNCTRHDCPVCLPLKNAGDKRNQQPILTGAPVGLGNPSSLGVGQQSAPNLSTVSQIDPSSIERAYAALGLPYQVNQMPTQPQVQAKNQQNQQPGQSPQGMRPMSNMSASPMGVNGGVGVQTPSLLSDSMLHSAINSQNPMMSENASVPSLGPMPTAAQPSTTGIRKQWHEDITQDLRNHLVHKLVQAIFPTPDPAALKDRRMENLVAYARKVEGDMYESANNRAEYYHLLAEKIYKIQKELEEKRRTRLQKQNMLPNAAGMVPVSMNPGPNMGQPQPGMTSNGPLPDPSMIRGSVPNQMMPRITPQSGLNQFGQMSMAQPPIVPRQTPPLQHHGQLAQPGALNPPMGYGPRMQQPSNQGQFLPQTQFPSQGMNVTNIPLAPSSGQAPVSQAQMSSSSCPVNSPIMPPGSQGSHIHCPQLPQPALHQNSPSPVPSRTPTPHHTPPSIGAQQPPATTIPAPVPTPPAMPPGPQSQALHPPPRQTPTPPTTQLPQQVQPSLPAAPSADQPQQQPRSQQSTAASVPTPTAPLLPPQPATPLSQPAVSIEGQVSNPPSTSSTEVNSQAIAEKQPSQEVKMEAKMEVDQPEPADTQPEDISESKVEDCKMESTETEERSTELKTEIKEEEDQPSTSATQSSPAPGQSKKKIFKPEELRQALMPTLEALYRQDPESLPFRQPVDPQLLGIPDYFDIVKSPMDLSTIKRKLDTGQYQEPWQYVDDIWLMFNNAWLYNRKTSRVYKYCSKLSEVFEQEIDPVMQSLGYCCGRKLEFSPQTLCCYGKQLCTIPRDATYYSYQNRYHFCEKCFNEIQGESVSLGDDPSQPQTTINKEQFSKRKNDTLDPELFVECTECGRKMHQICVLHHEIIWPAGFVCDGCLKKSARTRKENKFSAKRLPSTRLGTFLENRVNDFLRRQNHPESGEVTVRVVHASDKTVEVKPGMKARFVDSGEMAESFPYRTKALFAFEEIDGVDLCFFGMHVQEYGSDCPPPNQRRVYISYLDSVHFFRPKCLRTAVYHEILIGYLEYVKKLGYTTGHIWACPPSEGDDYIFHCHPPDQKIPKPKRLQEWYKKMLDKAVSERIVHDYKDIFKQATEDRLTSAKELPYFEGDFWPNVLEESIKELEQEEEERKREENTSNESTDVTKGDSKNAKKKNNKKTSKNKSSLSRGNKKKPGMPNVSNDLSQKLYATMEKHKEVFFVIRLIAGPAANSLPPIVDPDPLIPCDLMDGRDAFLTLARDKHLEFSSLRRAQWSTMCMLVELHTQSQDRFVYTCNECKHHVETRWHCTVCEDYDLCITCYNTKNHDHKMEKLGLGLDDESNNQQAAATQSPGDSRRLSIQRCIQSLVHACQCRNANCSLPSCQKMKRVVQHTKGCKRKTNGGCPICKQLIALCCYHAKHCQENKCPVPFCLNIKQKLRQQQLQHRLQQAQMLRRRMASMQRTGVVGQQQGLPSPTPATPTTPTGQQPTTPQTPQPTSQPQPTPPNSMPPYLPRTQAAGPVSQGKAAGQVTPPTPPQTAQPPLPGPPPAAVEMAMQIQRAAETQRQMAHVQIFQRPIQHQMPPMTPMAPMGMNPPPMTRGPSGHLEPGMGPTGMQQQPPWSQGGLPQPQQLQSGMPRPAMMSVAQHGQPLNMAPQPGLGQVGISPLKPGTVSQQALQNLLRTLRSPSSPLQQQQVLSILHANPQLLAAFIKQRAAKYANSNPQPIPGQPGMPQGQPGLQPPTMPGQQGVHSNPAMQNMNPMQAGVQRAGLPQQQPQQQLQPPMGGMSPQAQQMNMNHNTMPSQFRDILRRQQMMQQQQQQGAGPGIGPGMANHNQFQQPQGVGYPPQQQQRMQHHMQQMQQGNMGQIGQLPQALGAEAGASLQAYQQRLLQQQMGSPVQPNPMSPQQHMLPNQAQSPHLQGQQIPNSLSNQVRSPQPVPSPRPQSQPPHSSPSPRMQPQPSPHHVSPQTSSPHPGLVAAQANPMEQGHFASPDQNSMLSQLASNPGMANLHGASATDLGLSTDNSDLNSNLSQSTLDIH
UniProt P15208, residues 753-1372: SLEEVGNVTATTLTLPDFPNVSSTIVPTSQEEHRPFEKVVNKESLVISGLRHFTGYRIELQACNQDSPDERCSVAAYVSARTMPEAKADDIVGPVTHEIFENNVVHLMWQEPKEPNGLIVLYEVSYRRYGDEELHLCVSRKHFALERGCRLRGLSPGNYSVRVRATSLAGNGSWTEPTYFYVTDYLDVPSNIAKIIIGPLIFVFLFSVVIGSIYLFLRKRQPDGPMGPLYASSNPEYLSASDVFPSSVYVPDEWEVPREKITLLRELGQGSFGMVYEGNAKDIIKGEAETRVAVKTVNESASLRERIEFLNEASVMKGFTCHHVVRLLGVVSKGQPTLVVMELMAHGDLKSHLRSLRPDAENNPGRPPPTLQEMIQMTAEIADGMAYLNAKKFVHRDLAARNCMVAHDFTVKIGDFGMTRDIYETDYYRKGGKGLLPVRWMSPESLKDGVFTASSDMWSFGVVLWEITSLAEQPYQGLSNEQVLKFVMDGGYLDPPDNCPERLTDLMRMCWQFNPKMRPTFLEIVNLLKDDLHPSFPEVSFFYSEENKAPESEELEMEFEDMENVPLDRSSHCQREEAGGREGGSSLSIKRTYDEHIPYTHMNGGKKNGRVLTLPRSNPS

T2: insulin receptor substrate 2 (IRS2), endogenous, mouse (mouse (endogenous in liver and Hepa1-6 cells)) (UniProt P81122)
T2 sequence: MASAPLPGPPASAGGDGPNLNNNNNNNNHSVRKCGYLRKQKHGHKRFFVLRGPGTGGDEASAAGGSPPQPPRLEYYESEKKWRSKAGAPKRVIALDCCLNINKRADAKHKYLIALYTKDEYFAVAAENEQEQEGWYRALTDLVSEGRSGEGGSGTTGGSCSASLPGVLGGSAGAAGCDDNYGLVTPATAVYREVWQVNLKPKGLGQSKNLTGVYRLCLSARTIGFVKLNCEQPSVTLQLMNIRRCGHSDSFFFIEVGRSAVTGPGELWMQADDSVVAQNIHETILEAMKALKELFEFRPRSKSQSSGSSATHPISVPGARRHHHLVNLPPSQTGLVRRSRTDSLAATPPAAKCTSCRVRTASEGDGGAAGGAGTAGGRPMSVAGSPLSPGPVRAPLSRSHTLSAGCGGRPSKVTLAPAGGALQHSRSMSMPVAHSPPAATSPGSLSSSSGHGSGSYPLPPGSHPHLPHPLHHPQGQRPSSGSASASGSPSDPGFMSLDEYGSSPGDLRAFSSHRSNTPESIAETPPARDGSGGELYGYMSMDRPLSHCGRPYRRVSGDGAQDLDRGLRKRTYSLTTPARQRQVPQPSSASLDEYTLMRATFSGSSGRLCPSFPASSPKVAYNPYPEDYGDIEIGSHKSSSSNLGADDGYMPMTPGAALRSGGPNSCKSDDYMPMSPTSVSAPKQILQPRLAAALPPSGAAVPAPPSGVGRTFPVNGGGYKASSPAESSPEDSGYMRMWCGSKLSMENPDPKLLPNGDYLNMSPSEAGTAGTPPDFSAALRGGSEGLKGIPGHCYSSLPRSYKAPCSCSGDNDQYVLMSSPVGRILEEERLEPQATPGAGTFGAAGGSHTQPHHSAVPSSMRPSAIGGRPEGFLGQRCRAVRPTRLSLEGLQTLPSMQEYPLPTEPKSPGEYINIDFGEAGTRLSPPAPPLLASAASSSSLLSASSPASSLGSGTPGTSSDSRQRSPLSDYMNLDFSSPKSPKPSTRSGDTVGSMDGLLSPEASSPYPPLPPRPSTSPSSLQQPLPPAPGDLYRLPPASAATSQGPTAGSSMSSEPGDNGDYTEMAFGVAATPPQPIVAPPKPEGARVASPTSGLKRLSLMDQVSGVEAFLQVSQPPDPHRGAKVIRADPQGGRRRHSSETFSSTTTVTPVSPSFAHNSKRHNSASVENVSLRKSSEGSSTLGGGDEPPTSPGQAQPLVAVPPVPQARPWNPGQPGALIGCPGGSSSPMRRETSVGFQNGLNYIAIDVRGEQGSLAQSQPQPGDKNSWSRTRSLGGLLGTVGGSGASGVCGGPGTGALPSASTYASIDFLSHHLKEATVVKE

T3: FLAG-tagged IRS2-WT (mouse) (UniProt P81122)
T3 sequence: T2 sequence

B1: insulin receptor substrate 2 (IRS2), endogenous, mouse (protein, UniProt P81122 1-1321)
chain: T2 sequence

Columns and labels:
[1] = biological target: T1, FLAG-tagged XBP1s; assay: far-Western, overlay or dot blot; bovine serum albumin and purified FLAG-tagged XBP1s run on SDS-PAGE and transferred to a membrane; incubated with human P300 protein (1 µg) for 16 h; detected with antibody against P300; both purified
[2] = biological target: bovine serum albumin (bovine) (UniProt P02769); assay: as above
[3] = biological target: T2, insulin receptor substrate 2 (IRS2), endogenous, mouse (mouse (endogenous in liver and Hepa1-6 cells)); assay: co-IP; endogenous proteins in Hepa1-6 cells treated with 20 µM C37 or inhibitor C646 for 4 h
[4] = biological target: T3, FLAG-tagged IRS2-WT (mouse); assay: co-IP; FLAG-tagged IRS1/2-WT or -panKR transfected into Hepa1-6 cells for 48 h; pulled down with anti-FLAG magnetic beads; endogenous IRβ detected
[5] = biological target: T2, insulin receptor substrate 2 (IRS2), endogenous, mouse (mouse (endogenous in liver and Hepa1-6 cells)); assay: co-IP; endogenous proteins in mouse liver lysates (ob/ob and lean control mice; HFD-fed mice treated with vehicle or C646); antibody at 4 °C for 16 h, protein G beads
[6] = biological target: acetyltransferase P300 (endogenous, mouse) (mouse (endogenous in Hepa1-6 cells and mouse liver)) (UniProt B2RWS6); assay: co-IP; liver lysates from mice fed an HFD (3 weeks) incubated with P300-specific antibody and protein G beads overnight, washed, then incubated for 2 h with the peptide used to generate the P300 antibody

Row | Molecule | binding [1] | binding [2] | binding [3] | binding [4] | binding [5] | binding [6]
1 | human P300 protein (from UniProt Q09472 1-2414) (enzyme) | binds | no binding (tested: 1 µg human P300 protein) | – | – | – | –
2 | insulin receptor β-subunit (IRβ), endogenous, mouse (from UniProt P15208 753-1372) | – | – | binds | binds | binds | no binding
3 | B1 | – | – | – | – | – | binds

— paper PMC5526866
